A short description of the data set: Acute Toxicity (7-day, single application per os). The following applies: in vivo, po, single application p.o., NMRI mouse on an empty stomach. As to the method: The acute 7-day toxicity is determined after a single application per os on the white NMRI mouse, on an empty stomach, and the LD50 values are calculated by means of electronic data processing through a probit analysis.

The structures appear in SMILES notation.

Consider `CN1C(=O)CN=C(c2ccccc2)c2cc(Cl)ccc21` [Diazepam, diazepam], for which the 50% lethal dose (LD50) (commonly the dose expected to kill half of the subjects tested) at 168 h came out at 850 mg/kg.

The values are drawn from US4505908A, “7-Bromo-5-(2-halophenyl)-1H-2,3-dihydro-1,4-benzodiazepine pharmaceuticals” (priority 1981, dated 1985).
